Experimental findings from the supplement of paper PMC12819154, “High-throughput peptide-centric local stability assay extends protein–ligand identification to membrane proteins, tissues and bacteria” (Nature Structural & Molecular Biology, 2025) are described below.

Sequences of proteins named here, by UniProt entry; tags and fusion partners are left off. A change or cut given only in a name is not applied to a line headed by its entry.
UniProt P02786, whole entry, looked up: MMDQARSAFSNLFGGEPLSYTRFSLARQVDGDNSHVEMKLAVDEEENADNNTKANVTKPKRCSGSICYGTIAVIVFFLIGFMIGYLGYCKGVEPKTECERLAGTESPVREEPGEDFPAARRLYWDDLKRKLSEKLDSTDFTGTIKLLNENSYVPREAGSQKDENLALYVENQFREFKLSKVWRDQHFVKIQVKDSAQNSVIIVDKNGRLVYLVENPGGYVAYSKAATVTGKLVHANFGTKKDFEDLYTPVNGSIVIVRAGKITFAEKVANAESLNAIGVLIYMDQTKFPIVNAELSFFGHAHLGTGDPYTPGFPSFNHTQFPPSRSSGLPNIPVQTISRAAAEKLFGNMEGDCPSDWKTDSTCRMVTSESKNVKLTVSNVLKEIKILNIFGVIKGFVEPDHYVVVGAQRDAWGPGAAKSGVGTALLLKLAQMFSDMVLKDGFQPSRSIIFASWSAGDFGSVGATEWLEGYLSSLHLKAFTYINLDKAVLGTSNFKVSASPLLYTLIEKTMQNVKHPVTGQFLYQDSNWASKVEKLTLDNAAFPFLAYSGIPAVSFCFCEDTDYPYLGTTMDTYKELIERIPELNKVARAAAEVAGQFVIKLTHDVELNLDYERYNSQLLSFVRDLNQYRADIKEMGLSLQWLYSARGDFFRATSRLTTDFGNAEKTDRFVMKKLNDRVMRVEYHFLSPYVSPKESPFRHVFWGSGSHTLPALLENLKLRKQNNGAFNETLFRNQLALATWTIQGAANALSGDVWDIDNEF
UniProt P12318: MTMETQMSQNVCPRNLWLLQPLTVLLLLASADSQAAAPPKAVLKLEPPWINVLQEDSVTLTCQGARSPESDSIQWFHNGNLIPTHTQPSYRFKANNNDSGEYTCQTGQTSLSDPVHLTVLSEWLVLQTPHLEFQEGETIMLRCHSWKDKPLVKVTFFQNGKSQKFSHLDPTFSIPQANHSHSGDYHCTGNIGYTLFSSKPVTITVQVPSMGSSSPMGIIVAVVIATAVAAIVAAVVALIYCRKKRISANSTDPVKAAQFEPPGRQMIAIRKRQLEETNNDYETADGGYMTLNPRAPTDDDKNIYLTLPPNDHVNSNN
UniProt P05455: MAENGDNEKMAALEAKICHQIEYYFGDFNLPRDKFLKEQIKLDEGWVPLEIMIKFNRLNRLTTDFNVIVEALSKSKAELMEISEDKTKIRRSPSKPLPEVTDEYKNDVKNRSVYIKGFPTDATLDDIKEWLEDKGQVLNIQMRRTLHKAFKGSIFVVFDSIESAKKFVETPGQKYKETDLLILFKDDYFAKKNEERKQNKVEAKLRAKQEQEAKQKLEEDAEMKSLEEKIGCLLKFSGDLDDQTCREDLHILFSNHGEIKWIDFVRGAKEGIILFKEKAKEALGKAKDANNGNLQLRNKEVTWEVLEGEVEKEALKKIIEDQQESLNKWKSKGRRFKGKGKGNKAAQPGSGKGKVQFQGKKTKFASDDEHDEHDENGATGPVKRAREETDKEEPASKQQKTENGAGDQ
UniProt P0DTL6: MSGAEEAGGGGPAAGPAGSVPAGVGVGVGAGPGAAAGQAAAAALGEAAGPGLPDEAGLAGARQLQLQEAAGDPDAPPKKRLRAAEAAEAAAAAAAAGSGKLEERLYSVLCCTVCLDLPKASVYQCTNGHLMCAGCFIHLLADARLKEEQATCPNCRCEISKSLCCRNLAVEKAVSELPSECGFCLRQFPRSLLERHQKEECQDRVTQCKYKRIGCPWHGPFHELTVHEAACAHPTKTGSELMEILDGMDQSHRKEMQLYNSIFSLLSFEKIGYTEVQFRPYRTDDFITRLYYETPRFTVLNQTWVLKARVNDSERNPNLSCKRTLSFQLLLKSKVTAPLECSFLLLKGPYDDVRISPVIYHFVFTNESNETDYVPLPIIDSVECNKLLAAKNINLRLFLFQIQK
UniProt P11277, whole entry: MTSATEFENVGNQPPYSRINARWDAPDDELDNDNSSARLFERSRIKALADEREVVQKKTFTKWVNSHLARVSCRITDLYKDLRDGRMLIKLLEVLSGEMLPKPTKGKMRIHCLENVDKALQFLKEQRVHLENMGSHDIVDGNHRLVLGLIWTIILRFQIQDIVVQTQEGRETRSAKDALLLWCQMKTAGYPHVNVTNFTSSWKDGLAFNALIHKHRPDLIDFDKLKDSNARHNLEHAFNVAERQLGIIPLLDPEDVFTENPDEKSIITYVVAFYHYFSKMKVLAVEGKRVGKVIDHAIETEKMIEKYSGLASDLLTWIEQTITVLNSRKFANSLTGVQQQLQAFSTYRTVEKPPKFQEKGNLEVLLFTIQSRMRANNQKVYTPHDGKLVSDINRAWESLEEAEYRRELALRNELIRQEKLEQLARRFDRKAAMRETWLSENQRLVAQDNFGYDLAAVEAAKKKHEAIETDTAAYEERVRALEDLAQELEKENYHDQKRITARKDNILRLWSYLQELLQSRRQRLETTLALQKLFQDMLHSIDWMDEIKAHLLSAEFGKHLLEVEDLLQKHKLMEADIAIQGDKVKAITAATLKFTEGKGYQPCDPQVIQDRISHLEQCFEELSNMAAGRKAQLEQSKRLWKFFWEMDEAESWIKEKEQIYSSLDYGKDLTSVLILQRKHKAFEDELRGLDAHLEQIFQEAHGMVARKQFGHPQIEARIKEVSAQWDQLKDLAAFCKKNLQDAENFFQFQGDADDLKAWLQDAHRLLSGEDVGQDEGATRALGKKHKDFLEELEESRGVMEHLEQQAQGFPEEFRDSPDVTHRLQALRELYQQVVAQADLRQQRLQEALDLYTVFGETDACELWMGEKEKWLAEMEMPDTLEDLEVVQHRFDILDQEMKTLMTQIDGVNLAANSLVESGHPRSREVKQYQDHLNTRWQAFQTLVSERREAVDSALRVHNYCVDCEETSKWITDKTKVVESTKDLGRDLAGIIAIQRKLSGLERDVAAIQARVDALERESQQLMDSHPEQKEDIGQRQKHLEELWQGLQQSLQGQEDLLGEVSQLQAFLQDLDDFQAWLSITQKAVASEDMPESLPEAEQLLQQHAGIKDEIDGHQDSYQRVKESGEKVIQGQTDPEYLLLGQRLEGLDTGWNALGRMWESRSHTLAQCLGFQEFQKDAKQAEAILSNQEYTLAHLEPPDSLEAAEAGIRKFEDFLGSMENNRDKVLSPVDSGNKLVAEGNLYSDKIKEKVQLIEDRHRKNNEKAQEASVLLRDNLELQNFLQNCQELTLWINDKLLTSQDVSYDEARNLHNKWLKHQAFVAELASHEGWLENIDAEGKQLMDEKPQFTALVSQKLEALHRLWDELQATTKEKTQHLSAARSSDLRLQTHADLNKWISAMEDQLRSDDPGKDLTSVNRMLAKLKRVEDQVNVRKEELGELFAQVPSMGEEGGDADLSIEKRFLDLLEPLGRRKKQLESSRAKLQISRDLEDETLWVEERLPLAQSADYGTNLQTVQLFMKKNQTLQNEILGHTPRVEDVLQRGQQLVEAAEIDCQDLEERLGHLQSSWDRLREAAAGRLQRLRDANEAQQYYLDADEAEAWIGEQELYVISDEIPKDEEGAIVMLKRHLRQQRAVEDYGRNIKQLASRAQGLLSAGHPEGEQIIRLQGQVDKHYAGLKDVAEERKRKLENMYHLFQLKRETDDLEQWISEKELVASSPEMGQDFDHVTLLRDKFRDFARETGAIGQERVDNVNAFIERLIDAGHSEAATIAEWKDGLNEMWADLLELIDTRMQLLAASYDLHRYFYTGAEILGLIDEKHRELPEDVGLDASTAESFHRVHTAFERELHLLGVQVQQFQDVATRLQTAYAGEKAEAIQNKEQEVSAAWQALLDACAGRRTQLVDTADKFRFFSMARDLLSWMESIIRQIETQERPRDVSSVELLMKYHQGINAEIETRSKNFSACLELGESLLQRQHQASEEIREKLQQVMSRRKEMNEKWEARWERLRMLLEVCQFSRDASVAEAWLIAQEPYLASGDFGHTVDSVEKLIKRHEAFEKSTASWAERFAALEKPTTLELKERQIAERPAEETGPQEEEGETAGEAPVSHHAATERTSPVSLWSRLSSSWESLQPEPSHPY
UniProt P00746, whole entry: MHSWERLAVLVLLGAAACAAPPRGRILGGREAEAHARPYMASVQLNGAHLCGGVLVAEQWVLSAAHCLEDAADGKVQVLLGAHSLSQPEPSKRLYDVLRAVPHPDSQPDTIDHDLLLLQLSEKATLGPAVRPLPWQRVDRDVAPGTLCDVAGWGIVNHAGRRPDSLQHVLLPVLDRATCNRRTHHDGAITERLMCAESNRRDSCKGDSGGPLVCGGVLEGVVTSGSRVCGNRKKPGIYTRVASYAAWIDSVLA
UniProt P13489: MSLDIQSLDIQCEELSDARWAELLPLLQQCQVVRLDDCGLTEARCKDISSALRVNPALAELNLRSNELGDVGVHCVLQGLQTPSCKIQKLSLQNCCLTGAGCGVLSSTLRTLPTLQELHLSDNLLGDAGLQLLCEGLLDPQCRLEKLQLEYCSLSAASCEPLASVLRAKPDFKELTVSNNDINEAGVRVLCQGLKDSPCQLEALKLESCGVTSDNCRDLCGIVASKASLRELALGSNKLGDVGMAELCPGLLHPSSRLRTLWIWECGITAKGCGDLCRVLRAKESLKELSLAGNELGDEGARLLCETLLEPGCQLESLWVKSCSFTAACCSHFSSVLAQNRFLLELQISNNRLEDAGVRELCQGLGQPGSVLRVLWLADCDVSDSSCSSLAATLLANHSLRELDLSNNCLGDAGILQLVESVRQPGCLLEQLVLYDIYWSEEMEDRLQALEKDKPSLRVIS
UniProt P0C1Z6, whole entry: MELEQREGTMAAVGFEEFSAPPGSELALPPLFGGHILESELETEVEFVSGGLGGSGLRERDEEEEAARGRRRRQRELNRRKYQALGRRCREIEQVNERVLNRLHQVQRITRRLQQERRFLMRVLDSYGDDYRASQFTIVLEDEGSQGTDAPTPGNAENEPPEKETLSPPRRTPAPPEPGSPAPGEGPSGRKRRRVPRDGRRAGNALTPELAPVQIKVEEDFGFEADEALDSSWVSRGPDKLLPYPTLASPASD

The other results are listed elsewhere or left out. Most values lie at the level of the controls, where differences are scatter.

Compound in this assay: CN[C@@H]1C[C@H]2O[C@@](C)([C@@H]1OC)n1c3ccccc3c3c4c(c5c6ccccc6n2c5c31)C(=O)NC4 [staurosporine]
Briefly: log2 fold change of tryptic peptide abundance, ligand vs vehicle (limited proteolysis) (log2 ratio); higher = more trypsin-susceptible (destabilized). As to conditions: ligand concentration: 20 uM; sample: K562 cleared lysate; digestion: 4 min, 22 C (HT-PELSA RT4min, Orbitrap Astral).
Consider “TFRC (peptide sequence: QVDGDNSHVEMK, peptide start residue: 28) (UniProt P02786)”, for which the log2 fold change was -0.0938.

As for “HSP90AA1 (peptide sequence: LGIHEDSQNR, peptide start residue: 447) (UniProt P07900)”, the log2 fold change was found to be 0.287.

Take “FCGR2A (peptide sequence: AAQFEPPGR, peptide start residue: 256) (UniProt P12318)”: the log2 fold change came out at 0.0663.

Regarding “SSB (peptide sequence: ETDLLILFKDDYFAKK, peptide start residue: 177) (UniProt P05455)”, the log2 fold change was determined as 0.473.

Regarding “E9PJD7 (peptide sequence: AAEAAEAAAAAAAAGSGKLEER, peptide start residue: 83) (UniProt P0DTL6)”, the log2 fold change was -0.159.

For the target “SPTB (peptide sequence: RVEDQVNVR, peptide start residue: 1423) (UniProt P11277)”, the log2 fold change was found to be 0.497.

Consider “EEF2 (peptide sequence: DSVVAGFQWATK, peptide start residue: 677) (UniProt P13639)”, for which the log2 fold change was -0.259.

In the case of “UniProt P00746 (peptide sequence: ATLGPAVRPLPWQR, peptide start residue: 124)”, the log2 fold change was 0.339.

Turning to “RNH1 (peptide sequence: CKDISSALR, peptide start residue: 45) (UniProt P13489)”, the log2 fold change is 0.255.

With “TFPT (peptide sequence: VLDSYGDDYR, peptide start residue: 123) (UniProt P0C1Z6)”, the log2 fold change is -0.562.
